The text below walks through data of patent publication US8377422B2, “Carboxamide derivatives having cooling properties” (Givaudan S.A., priority 2007, dated 2013).

Each structure is given as a SMILES string.

The series concerns panelists. The experiment in a line: Cooling intensity: panel tasting of aqueous solutions against menthol at 2 ppm. The class given is in vivo, human. As to conditions: odor of the aqueous solution at the listed concentration.
Consider `CC(C)OCCCNC(=O)[C@@H]1C[C@H](C)CC[C@H]1C(C)C` [(1R,2S,5R)-N-(3-isopropoxypropyl)-2-isopropyl-5-methylcyclohexanecarboxamide], for which the Odor result is “None”.

Take `CC(C)[C@@H]1CC[C@@H](C)C[C@H]1C(=O)NCCOc1ccccc1` [Ex. 2.7, (1R,2S,5R)-2-isopropyl-5-methyl-N-(2-phenoxyethyl)cyclohexanecarboxamide]: the Odor result is “None”.

In the case of `CC1CCC(C(C)C)C(O)C1` (stereo not drawn) [I-Menthol], the Odor entry is “Minty”.

On to `CC(C)[C@@H]1CC[C@@H](C)C[C@H]1C(=O)NCCCOc1ccccn1` [Ex. 2.5, (1R,2S,5R)-2-isopropyl-5-methyl-N-(3-(pyridin-2-yloxy)propyl)cyclohexane-carboxamide], for which the Odor entry is given as “None”.

On to `CCNC(=O)C1CC(C)CCC1C(C)C` (stereo not drawn) [WS-3, N-ethyl p-menthanecarboxamide], for which the Odor entry is given as “None”.

For the molecule `COCCNC(=O)[C@@H]1C[C@H](C)CC[C@H]1C(C)C` [(1R,2S,5R)-2-isopropyl-N-(2-methoxyethyl)-5-methylcyclohexanecarboxamide], the Odor entry is “None”.
